Data: patent publication US20230022796A1 (Merck Patent GmbH, priority 2019, published 2023)

Key:
[1] = test system: CHO cell line producing mAb2; experiment: Fed-batch cell performance (titer), clone 2 producing mAb2; type: cell-based, Chinese hamster; conditions: mAb2, feed with 400 μM additive, day 17
[2] = test system: four investigated CHO cell lines; experiment: Fed-batch cellular performance (VCD and titer), four CHO cell lines; type: cell-based, Chinese hamster; conditions: feed with 400 μM additive, four biological replicates, vs two control conditions and positive control

Row | Compound | titer [1] | impact on the cellular performance (VCD and titer) [2]
1 | C[C@@H]1SC(O)[C@@H](O)[C@H](O)[C@@H]1O (some centres unmarked) | 2.02 g/L | no significant impact
2 | CC(=O)OC1O[C@@H](C)[C@@H](OC(C)=O)[C@@H](OC(C)=O)[C@@H]1F (some centres unmarked) [2F-Peracetylfucose, reference compound] | 1.78 g/L | 
3 | acetylated 5-Thio-L-Fucose | 1.82 g/L | no significant impact
